Test results taken from paper PMC5509376.
These are yes or no findings as the source states them, for the method shown. For some of these results: In cells and extracts the contact can be indirect. Some entries that bind do so weakly or less than the wild type.

The chains behind the UniProt entries cited, without tags or fusion partners. Where a name states a change or a piece, a line headed by the entry shows the natural chain unless it says otherwise. Residues count along the entry.
UniProt Q6PHU5, whole entry, looked up, stated change not applied: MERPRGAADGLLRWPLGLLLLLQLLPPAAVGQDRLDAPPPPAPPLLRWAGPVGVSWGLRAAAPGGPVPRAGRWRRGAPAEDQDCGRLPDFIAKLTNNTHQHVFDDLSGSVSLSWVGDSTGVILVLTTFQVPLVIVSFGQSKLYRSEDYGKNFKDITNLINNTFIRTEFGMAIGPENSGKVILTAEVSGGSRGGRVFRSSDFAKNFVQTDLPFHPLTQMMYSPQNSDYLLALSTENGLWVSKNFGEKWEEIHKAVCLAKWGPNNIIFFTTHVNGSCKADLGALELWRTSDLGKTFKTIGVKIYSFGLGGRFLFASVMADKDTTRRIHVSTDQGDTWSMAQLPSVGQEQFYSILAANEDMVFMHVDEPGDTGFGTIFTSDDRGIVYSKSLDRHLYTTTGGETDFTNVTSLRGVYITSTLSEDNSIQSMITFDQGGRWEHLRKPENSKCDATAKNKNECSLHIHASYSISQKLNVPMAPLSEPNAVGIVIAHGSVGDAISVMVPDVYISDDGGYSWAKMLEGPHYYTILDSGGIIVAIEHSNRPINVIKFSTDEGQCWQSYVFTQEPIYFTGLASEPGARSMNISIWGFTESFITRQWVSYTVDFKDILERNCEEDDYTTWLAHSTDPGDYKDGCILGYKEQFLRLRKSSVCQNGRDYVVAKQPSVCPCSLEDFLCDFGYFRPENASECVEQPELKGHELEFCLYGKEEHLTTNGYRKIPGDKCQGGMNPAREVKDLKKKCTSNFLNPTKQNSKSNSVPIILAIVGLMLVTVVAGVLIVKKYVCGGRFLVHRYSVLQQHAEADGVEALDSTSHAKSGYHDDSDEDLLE
UniProt Q6PHU5, 74-825: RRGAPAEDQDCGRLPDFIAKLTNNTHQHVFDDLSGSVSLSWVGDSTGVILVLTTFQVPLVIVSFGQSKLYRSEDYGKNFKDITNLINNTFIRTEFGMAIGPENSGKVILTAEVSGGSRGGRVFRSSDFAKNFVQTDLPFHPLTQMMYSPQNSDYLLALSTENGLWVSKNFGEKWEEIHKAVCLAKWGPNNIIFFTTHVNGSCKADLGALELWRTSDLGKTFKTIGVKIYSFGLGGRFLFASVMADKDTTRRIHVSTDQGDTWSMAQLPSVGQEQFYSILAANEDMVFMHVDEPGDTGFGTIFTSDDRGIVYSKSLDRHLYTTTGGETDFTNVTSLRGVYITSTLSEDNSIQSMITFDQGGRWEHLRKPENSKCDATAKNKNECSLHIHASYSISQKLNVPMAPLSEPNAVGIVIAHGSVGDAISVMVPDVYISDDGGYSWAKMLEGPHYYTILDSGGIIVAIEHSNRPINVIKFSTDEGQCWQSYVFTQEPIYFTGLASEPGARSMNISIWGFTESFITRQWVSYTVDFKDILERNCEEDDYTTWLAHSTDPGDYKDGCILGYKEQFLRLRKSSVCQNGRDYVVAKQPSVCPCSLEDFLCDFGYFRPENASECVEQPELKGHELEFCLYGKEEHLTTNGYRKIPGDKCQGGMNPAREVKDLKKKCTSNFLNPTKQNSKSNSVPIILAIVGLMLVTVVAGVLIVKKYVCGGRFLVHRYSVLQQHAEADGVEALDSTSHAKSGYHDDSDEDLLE

What was measured:
[1] = molecular target: VPS10P domain of sortilin fused with GST (mouse) (UniProt Q6PHU5); assay: pull-down; both purified
[2] = molecular target: cellular prion protein (mouse) (UniProt P04925); assay: co-IP

| Substance | binding [1] | binding [2] |
| --- | --- | --- |
| His-tagged recombinant PrP lacking residues 23–88 (from UniProt P04925 23-230) | no binding (tested: 2 μg of each protein) |  |
| full-length mycHis-tagged sortilin (from UniProt Q6PHU5 74-825) (receptor) |  | binds |
| sortilinΔ76–177 (mycHis-tagged) (from UniProt Q6PHU5 74-825) (receptor) |  | binds |
| sortilinΔ178–290 (mycHis-tagged) (from UniProt Q6PHU5 74-825) (receptor) |  | binds |
| sortilinΔ291–409 (mycHis-tagged) (from UniProt Q6PHU5 74-825) (receptor) |  | binds |
| sortilinΔ410–508 (mycHis-tagged) (from UniProt Q6PHU5 74-825) (receptor) |  | binds |
| sortilinΔ509–609 (mycHis-tagged) (from UniProt Q6PHU5 74-825) (receptor) |  | binds |
